The text below walks through data of paper PMC7486383, “Protrudin and PDZD8 contribute to neuronal integrity by promoting lipid extraction required for endosome maturation” (Nature Communications, 2020).

Experiment [1] addresses T1, FLAG-protrudin (not stated (human or mouse cDNA cloned)) (UniProt Q5T4F4).
T1 sequence: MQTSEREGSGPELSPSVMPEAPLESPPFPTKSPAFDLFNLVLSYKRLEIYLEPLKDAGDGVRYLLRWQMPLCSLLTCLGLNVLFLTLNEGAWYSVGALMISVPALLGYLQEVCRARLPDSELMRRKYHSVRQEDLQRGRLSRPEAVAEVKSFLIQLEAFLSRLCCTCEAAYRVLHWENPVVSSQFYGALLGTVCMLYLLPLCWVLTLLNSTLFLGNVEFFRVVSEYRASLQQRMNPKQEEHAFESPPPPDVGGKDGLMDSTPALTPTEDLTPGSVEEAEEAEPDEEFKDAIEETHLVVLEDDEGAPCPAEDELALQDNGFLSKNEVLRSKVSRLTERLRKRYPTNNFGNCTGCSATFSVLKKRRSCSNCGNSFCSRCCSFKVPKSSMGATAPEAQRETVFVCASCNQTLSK
The experiment in a line: co-IP; epitope-tagged proteins co-expressed in HEK293T cells; IP with primary antibodies and protein G-Sepharose, 1 h at 4 °C, three washes with lysis buffer; immunoblot. On the technique in general: Immunoblotting shows a protein as a band on a membrane.

The target in experiment [2] is T2, protrudin (co-immunoprecipitation of Supplementary Fig. 7c) (not stated (human or mouse cDNA cloned)) (UniProt Q5T4F4).
T2 sequence: T1 sequence
The experiment in a line: co-IP; PDZD8(WT), PDZD8(ΔTM) or TM-domain chimeras with protrudin (Supplementary Fig. 7c); cells and tags not given.

Results are given in words; binding and its absence hold for the method and conditions named. In cells and extracts the contact can be indirect. Binding can be weak; no strength is given. For part of these data: Where a sequence is shown, tags or fusion partners need not be part of it.

For Myc epitope-tagged PDZD8 (mouse), in experiment [1], the binding result is recorded as “binds”.
As to PDZD8(WT) (mouse), in experiment [2], the binding result is given as “binds”.
On to PDZD8(ΔTM) (mouse) (domain or fragment), for which, in experiment [2], the binding entry is recorded as “no binding”.
